Results from patent US20090179638A1, “ASSAY FOR IDENTIFYING INHIBITORS OF NEURONAL APOPTOTIC PATHWAYS” (AEGERA THERAPEUTICS INC., priority 2006, published 2009).
For some assays here: For at least one compound, name, drawing or mass did not settle the structure. Some entries share one result that the patent states for a list of compounds.

How the values were obtained:
SCG neurons [1] = conditions: previously demonstrated by the inventors; cited from earlier work
JNK = assay: Staurosporine induced JNK activity in PC12 cells (c-Jun phosphorylation); assay type: cell-based
SCG neurons [2] = conditions: previously demonstrated by the inventors; cited from earlier work; remark: listed apart in the source
Akt = Akt levels in PC12 cells (immunoblot); assay type: cell-based; conditions: 16 hours

**Q.** Which results are given for [O-][S+](Cc1ccncc1)c1nn2cc(-c3ccc(F)cc3)nc2s1 (centres unmarked) [Compound 10]?
**A.** inhibition of Taxol or cisplatin induced apoptosis in SCG neurons (SCG neurons [1]): inhibit; inhibition of staurosporine induced induction of JNK (JNK): inhibit; inhibition of NGF withdrawal induced death in SCG neurons (SCG neurons [2]): inhibit

**Q.** With NS(=O)(=O)c1nn2cc(-c3ccc(-c4ccc5c(c4)OCO5)cc3)nc2s1 [Compound 18] as the compound, how does the “inhibition of Taxol or cisplatin induced apoptosis in SCG neurons” value (SCG neurons [1]) read?
**A.** The value was “inhibit”.

**Q.** And the “inhibition of NGF withdrawal induced death in SCG neurons” value (SCG neurons [2])?
**A.** Its value is “inhibit”.

**Q.** With NS(=O)(=O)c1nn2cc(-c3ccc(O)cc3)nc2s1 [Compound 5] as the compound, how does the “inhibition of Taxol or cisplatin induced apoptosis in SCG neurons” value (SCG neurons [1]) read?
**A.** The value was “inhibit”.

**Q.** What about the “inhibition of NGF withdrawal induced death in SCG neurons” value (SCG neurons [2]) of the same compound?
**A.** The value was “inhibit”.

**Q.** For COC1=C2C[C@@H](C)C[C@H](OC)[C@H](O)[C@@H](C)/C=C(\C)[C@H](OC(N)=O)[C@@H](OC)/C=C\C=C(/C)C(=O)NC(=CC1=O)C2=O [geldanamycin, reference compound], which “phosphorylated Akt (pAkt) levels” value (Akt) is on record?
**A.** The value was “dramatic reduction”.

**Q.** And the “total Akt levels” value (Akt)?
**A.** Its value is “dramatic reduction”.

**Q.** With NS(=O)(=O)c1nn2cc(-c3cc(C(F)(F)F)ccc3Cl)nc2s1 [Compound 16] as the compound, how does the “inhibition of Taxol or cisplatin induced apoptosis in SCG neurons” value (SCG neurons [1]) read?
**A.** Its value is “inhibit”.

**Q.** And the “inhibition of staurosporine induced induction of JNK” value (“inhibition … of JNK” below) (JNK)?
**A.** The value was “inhibit”.

**Q.** What about the “inhibition of NGF withdrawal induced death in SCG neurons” value (SCG neurons [2]) of the same compound?
**A.** The value was “inhibit”.

**Q.** For CC(=O)N1CCN(CC[S+]([O-])c2nn3cc(-c4ccccc4)nc3s2)CC1 (centres unmarked) [Compound 20], which “inhibition of Taxol or cisplatin induced apoptosis in SCG neurons” value (SCG neurons [1]) is on record?
**A.** The value was “inhibit”.

**Q.** What about the “inhibition of NGF withdrawal induced death in SCG neurons” value (SCG neurons [2]) of the same compound?
**A.** Its value is “inhibit”.

**Q.** With O=S(=O)(Cc1ccncc1)c1nn2cc(-c3ccc(F)cc3)nc2s1 [Compound 11] as the compound, how does the “inhibition of Taxol or cisplatin induced apoptosis in SCG neurons” value (SCG neurons [1]) read?
**A.** The value was “inhibit”.

**Q.** What about the “inhibition … of JNK” value (JNK) of the same compound?
**A.** Its value is “inhibit”.

**Q.** And the “inhibition of NGF withdrawal induced death in SCG neurons” value (SCG neurons [2])?
**A.** The value was “inhibit”.

**Q.** With NS(=O)(=O)c1nn2cc(-c3ccccc3)nc2s1 [Compound 1] as the compound, how does the “inhibition of Taxol or cisplatin induced apoptosis in SCG neurons” value (SCG neurons [1]) read?
**A.** Its value is “inhibit”.

**Q.** And the “inhibition … of JNK” value (JNK)?
**A.** The value was “inhibit”.

**Q.** And the “inhibition of NGF withdrawal induced death in SCG neurons” value (SCG neurons [2])?
**A.** Its value is “inhibit”.

**Q.** For NCCS(=O)(=O)c1nn2cc(-c3ccccc3)nc2s1 [Compound 6], which “inhibition of Taxol or cisplatin induced apoptosis in SCG neurons” value (SCG neurons [1]) is on record?
**A.** The value was “inhibit”.

**Q.** And the “inhibition of NGF withdrawal induced death in SCG neurons” value (SCG neurons [2])?
**A.** The value was “inhibit”.

**Q.** Which results are given for COCCOCCOc1ccc(-c2cn3nc(S(N)(=O)=O)sc3n2)cc1 [Compound 13]?
**A.** inhibition of Taxol or cisplatin induced apoptosis in SCG neurons (SCG neurons [1]): inhibit; inhibition of staurosporine induced induction of JNK (JNK): inhibit; inhibition of NGF withdrawal induced death in SCG neurons (SCG neurons [2]): inhibit

**Q.** Which “inhibition of Taxol or cisplatin induced apoptosis in SCG neurons” value (SCG neurons [1]) does the source give for NS(=O)(=O)c1nn2cc(-c3cccc(OC(F)(F)F)c3)nc2s1 [Compound 17] here?
**A.** Its value is “inhibit”.

**Q.** And the “inhibition … of JNK” value (JNK)?
**A.** Its value is “inhibit”.

**Q.** And the “inhibition of NGF withdrawal induced death in SCG neurons” value (SCG neurons [2])?
**A.** The value was “inhibit”.

**Q.** With NS(=O)(=O)c1nn2cc(-c3ccc4c(c3)OCCCO4)nc2s1 [Compound 12] as the compound, how does the “inhibition of Taxol or cisplatin induced apoptosis in SCG neurons” value (SCG neurons [1]) read?
**A.** Its value is “inhibit”.

**Q.** And the “inhibition … of JNK” value (JNK)?
**A.** The value was “inhibit”.

**Q.** What about the “inhibition of NGF withdrawal induced death in SCG neurons” value (SCG neurons [2]) of the same compound?
**A.** Its value is “inhibit”.

**Q.** Which results are given for NS(=O)(=O)c1nn2cc(-c3ccc(N4CCOCC4)cc3)nc2s1 [Compound 2]?
**A.** inhibition of Taxol or cisplatin induced apoptosis in SCG neurons (SCG neurons [1]): inhibit; inhibition of NGF withdrawal induced death in SCG neurons (SCG neurons [2]): inhibit

**Q.** Which results are given for NS(=O)(=O)c1nn2cc(-c3ccc(-c4cccc(C(F)(F)F)c4)cc3)nc2s1 [Compound 19]?
**A.** inhibition of Taxol or cisplatin induced apoptosis in SCG neurons (SCG neurons [1]): inhibit; inhibition of NGF withdrawal induced death in SCG neurons (SCG neurons [2]): inhibit

**Q.** For CC(C)(C)c1ccc(-c2cn3nc(S(N)(=O)=O)sc3n2)cc1 [Compound 15], which “inhibition of Taxol or cisplatin induced apoptosis in SCG neurons” value (SCG neurons [1]) is on record?
**A.** Its value is “inhibit”.

**Q.** And the “inhibition … of JNK” value (JNK)?
**A.** Its value is “inhibit”.

**Q.** What about the “inhibition of NGF withdrawal induced death in SCG neurons” value (SCG neurons [2]) of the same compound?
**A.** The value was “inhibit”.

**Q.** With NS(=O)(=O)c1nn2cc(-c3ccc(C(F)(F)F)cc3)nc2s1 [Compound 14] as the compound, how does the “inhibition of Taxol or cisplatin induced apoptosis in SCG neurons” value (SCG neurons [1]) read?
**A.** Its value is “inhibit”.

**Q.** And the “inhibition … of JNK” value (JNK)?
**A.** Its value is “inhibit”.

**Q.** And the “inhibition of NGF withdrawal induced death in SCG neurons” value (SCG neurons [2])?
**A.** The value was “inhibit”.
